Measurements published in paper PMC7819943, “Rice protein-binding microarrays: a tool to detect cis-acting elements near promoter regions in rice”.
The list shows a part of the results.

Sequences of proteins named here, by UniProt entry; tags and fusion partners are left off.
UniProt Q0JBA9, entry or part of it: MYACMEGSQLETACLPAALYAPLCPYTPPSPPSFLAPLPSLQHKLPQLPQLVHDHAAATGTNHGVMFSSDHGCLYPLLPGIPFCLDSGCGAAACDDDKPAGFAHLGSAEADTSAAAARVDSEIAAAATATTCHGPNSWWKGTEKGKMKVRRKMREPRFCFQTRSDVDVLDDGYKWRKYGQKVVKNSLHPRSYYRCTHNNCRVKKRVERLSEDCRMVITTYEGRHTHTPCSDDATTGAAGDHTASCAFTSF

Each sequence was assayed against OsWRKY34 (Oryza sativa, UniProt Q0JBA9 1-250) (assay: protein-binding microarray (RPBM); PBS, 2% BSA, 51.3 ng/ul salmon testes DNA, 50 uM zinc acetate, 200 nM TF, 25 C, 1 h; high values mean tight binding). Conditions: protein: recombinant; tags: N-terminal polyhistidine and DsRed monomer fusion (pET32a); label: CyDye5-dUTP incorporated in the synthesized complementary strand; 3' TTTTT single-stranded linker to array surface; dsDNA, one strand shown.
Outline: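 Transcription factors were made in E. coli BL21-CodonPlus as N-terminal fusions to a polyhistidine tag and DsRed, then purified on Ni–NTA. After primer extension with Cy5-dUTP and blocking with 2% BSA, a custom Agilent array was exposed for 1 h at 25 °C to 200 nM protein in PBS, 2% BSA, salmon testes DNA and 50 µM zinc acetate. Washed arrays were scanned on an Axon 4000B, and the binding signal is per-feature fluorescence intensity in arbitrary units.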

Sequence | binding signal
GACGGTCACTGCACCTGAATATGATTGTTTTTTTTTTTTTCGGAGTCACCTAGTGCAG | 11100 fluorescence intensity (a.u.)
CCCCTCAACTTGTTTCCGGTTACTTCTTTCTCCTCATTTACGGAGTCACCTAGTGCAG | 9260 fluorescence intensity (a.u.)
GTTGCTGGTGATGAGCTTCACTTTCTTGGATTGATTTTTTCGGAGTCACCTAGTGCAG | 8800 fluorescence intensity (a.u.)
GACTTTTCACGTAACGTTTGACCATTTATCTTATTTATAACGGAGTCACCTAGTGCAG | 9970 fluorescence intensity (a.u.)
ACTTTATTGCGCCCTCCACACCATTCCGTCCGTTTTTGGTCGGAGTCACCTAGTGCAG | 8950 fluorescence intensity (a.u.)
GTTGTAGTTGCTGGTTTGCTTGCTAGCTTCGTCGTCTCCTCGGAGTCACCTAGTGCAG | 11000 fluorescence intensity (a.u.)
ACTTGTTTTACGTTCGGCTAATTAGCTGTTTGACCGTTTCCGGAGTCACCTAGTGCAG | 15300 fluorescence intensity (a.u.)
ATATCACCTCACATAAACACACTGGATCGCTGTTTCCTCCCGGAGTCACCTAGTGCAG | 8580 fluorescence intensity (a.u.)
GAGAATCCCGCGCCCGCCCGCCCGCATCACCGCCGGATGGCGGAGTCACCTAGTGCAG | 9180 fluorescence intensity (a.u.)
TTAAACTCTCCGTCTCATTGTTGTTTACATGTCGTCTAAACGGAGTCACCTAGTGCAG | 11100 fluorescence intensity (a.u.)
GGCTGCAGTTTCTGTTTTTTTTTTCTCTGCTGAATCTTGTCGGAGTCACCTAGTGCAG | 8830 fluorescence intensity (a.u.)
CAACTGTGTACGTCATTTTGTTTGCTCTTTTATACATGTACGGAGTCACCTAGTGCAG | 11800 fluorescence intensity (a.u.)
TGTTTCGTTGTACTTTCTGCTCCCAGTTGAGGATTTGCCACGGAGTCACCTAGTGCAG | 9380 fluorescence intensity (a.u.)
CTTCCCTCCCGCGACTGACTTTTTTTCTTTTTTATTTTTCCGGAGTCACCTAGTGCAG | 11600 fluorescence intensity (a.u.)
CACGGCACTAGACACCACCATCCTCTTACCTTCCCGGTTTCGGAGTCACCTAGTGCAG | 9130 fluorescence intensity (a.u.)
TAACTCTTGTAGCTGTTTTGTTTTTGCATAGGTTTATATTCGGAGTCACCTAGTGCAG | 10800 fluorescence intensity (a.u.)
TTATTCGTTAGTATGATTGCTATATATTGTTTTTTTTTACCGGAGTCACCTAGTGCAG | 8050 fluorescence intensity (a.u.)
ATACTCTCCCACCCACGTTCATGTTCTCCATGGAGCTGCACGGAGTCACCTAGTGCAG | 8180 fluorescence intensity (a.u.)
CTTTCTATCAGCATTGGCAGCTTGCTCGTTGTAACTGTTTCGGAGTCACCTAGTGCAG | 8630 fluorescence intensity (a.u.)
CTTATTACTGTTCGAGCTTATGTCACATCTATTCCAAGGACGGAGTCACCTAGTGCAG | 9690 fluorescence intensity (a.u.)
TGATTAGATCAGCCATTTTAATTTTTTTGCCTCTTAAGTGCGGAGTCACCTAGTGCAG | 8240 fluorescence intensity (a.u.)

Sequence | binding signal
ACGCTCTTTGTGTTGCTGCCACCGCCGCCGACCGCCGCAGCGGAGTCACCTAGTGCAG | 9590 fluorescence intensity (a.u.)
GGGATAATTGTTCAGTCTTAGGCGAGCACAGATTTATCATCGGAGTCACCTAGTGCAG | 9690 fluorescence intensity (a.u.)
TCGTTATACCTGGTTTTTTTGGTTGAGGGATGTTATTCGACGGAGTCACCTAGTGCAG | 12500 fluorescence intensity (a.u.)
TTGCCATCTAACATTTGTTATCTTGAGTTACCACAAATTTCGGAGTCACCTAGTGCAG | 9210 fluorescence intensity (a.u.)
CTCGCCTCTGGATCTCGCCCTCTCGGCGTCGCCGGCGCCTCGGAGTCACCTAGTGCAG | 10500 fluorescence intensity (a.u.)
TGATGCTTTGGCCGGGGTGGGTGTGTCTCCCGGTGTGTAGCGGAGTCACCTAGTGCAG | 12400 fluorescence intensity (a.u.)
TTACTACTACCACTCGTTTTCTTGGCTTGGTTTGGTTTGGCGGAGTCACCTAGTGCAG | 13000 fluorescence intensity (a.u.)
CTTTTTGTTCTTGTCCTTCTCTCTTTGTCTCTTCAATAATCGGAGTCACCTAGTGCAG | 8520 fluorescence intensity (a.u.)
TTTTACCAACTTTCTTAATACTCGTGTCCACCTAAAAAATCGGAGTCACCTAGTGCAG | 8440 fluorescence intensity (a.u.)
GAAAAAAATGTATTTGACGGGTGGGTCTCACTTATAGAGACGGAGTCACCTAGTGCAG | 8530 fluorescence intensity (a.u.)
ACCGGTGCATATTGTTGATCAGTATTGTGTGTTGAACTGACGGAGTCACCTAGTGCAG | 10400 fluorescence intensity (a.u.)
ACATACAAACTGTGCAATTGGTTTTTTCTTCGTTCATATTCGGAGTCACCTAGTGCAG | 9260 fluorescence intensity (a.u.)
GTGTCGGCGTGGATAAATGTTTCTTTCGATCCGGTTCAAGCGGAGTCACCTAGTGCAG | 8600 fluorescence intensity (a.u.)
CCCATGTAGTTTTATGCCTCGATGTACTTTGCCAAGCCCACGGAGTCACCTAGTGCAG | 8500 fluorescence intensity (a.u.)
TTCGCTCTCTCTTGCTCTCCACCACCGCGGCTTTCTTTAACGGAGTCACCTAGTGCAG | 12500 fluorescence intensity (a.u.)
CCACGCACGTACCACCGGTTCATCACCCGACCAGTCAAATCGGAGTCACCTAGTGCAG | 10100 fluorescence intensity (a.u.)
CTGTATTTGCCACTGCTGTTTGTAGTCACAAGAAACACTACGGAGTCACCTAGTGCAG | 8250 fluorescence intensity (a.u.)
GTCAATGTGTTTGTTATTCTAACCAGCTCGTCAATTAATTCGGAGTCACCTAGTGCAG | 10500 fluorescence intensity (a.u.)
ATCCTTCTTCGTTTTCTGATTTTCCATCTCATCAGTAATACGGAGTCACCTAGTGCAG | 10300 fluorescence intensity (a.u.)
GGTATGCTACATTTGCTGTTTATTTTTTAGCAAAGCTAAACGGAGTCACCTAGTGCAG | 8860 fluorescence intensity (a.u.)
CCCCGTCTCTCCCTGTGTCTCGTCTTCGTCTCGGCTCGTCCGGAGTCACCTAGTGCAG | 8820 fluorescence intensity (a.u.)

An excerpt of these results, tab-delimited.
Sequence	binding signal
CTCGCCTCTGGATCTCGCCCTCTCGGCGTCGCCGGCGCCTCGGAGTCACCTAGTGCAG	10500 fluorescence intensity (a.u.)
TGATGCTTTGGCCGGGGTGGGTGTGTCTCCCGGTGTGTAGCGGAGTCACCTAGTGCAG	12400 fluorescence intensity (a.u.)
ACCGGTGCATATTGTTGATCAGTATTGTGTGTTGAACTGACGGAGTCACCTAGTGCAG	10400 fluorescence intensity (a.u.)
GTGTCGGCGTGGATAAATGTTTCTTTCGATCCGGTTCAAGCGGAGTCACCTAGTGCAG	8600 fluorescence intensity (a.u.)
CCCATGTAGTTTTATGCCTCGATGTACTTTGCCAAGCCCACGGAGTCACCTAGTGCAG	8500 fluorescence intensity (a.u.)
CTGTATTTGCCACTGCTGTTTGTAGTCACAAGAAACACTACGGAGTCACCTAGTGCAG	8250 fluorescence intensity (a.u.)
ATCCTTCTTCGTTTTCTGATTTTCCATCTCATCAGTAATACGGAGTCACCTAGTGCAG	10300 fluorescence intensity (a.u.)
GGTATGCTACATTTGCTGTTTATTTTTTAGCAAAGCTAAACGGAGTCACCTAGTGCAG	8860 fluorescence intensity (a.u.)
